Laboratory results: PubChem BioAssay AID504786 (Drosophila RNAi Screening Center, 2011)
Screen: 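Positive regulators of HIF-driven reporter output in Drosophila cells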 (primary screen). Cell system: Drosophila S2 cells with a stable HIF luciferase reporter. Reagents: long dsRNA against Drosophila genes, about 0.2 µg dsRNA per well of a 384-well plate. Timing: three days of knock-down, then 20 h of DFO before reading. Conditions: desferrioxamine (DFO) at 100 µM, an iron chelator that mimics hypoxia, for 20 h. Measured: 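HIF reporter luminescence in cells given 100 µM DFO for 20 h, using the mouse ldh-a hypoxia-response element, scored as per-plate z-scores; higher means greater loss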. Direction: z-score: higher = stronger loss of HIF reporter signal.
In all, the deposit lists about 21,000 reagents; shown is an unselected part of those with a known target gene and a result. 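Primary screen; positive scores mean lost reporter signal, so the sign may be inverted from the usual convention.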 The numbers tell different reagents against one gene apart. Names joined by + are all predicted targets of the reagent. Not all columns of the deposit are shown.

| predicted target | reagent | z-score, replicate 1 | z-score, replicate 2 |
| --- | --- | --- | --- |
| Tsr1 | 1 | -0.2 | 0.5 |
| CG12995 | 1 | -0.3 | -0.6 |
| cnc | 1 | -0.4 | -0.6 |
| cnc | 2 | -0.1 | 0.1 |
| cnc | 3 | -0.3 | 0.2 |
| cnc | 4 | -0.3 | -0.3 |
| Zaf1 | 1 | -0.3 | -0.5 |
| CG7755 | 1 | -0.1 | -0.1 |
| Rab3 | 1 | -0.3 | -0.2 |
| CG7110 | 1 | -0.3 | -0.4 |
| CG7110 | 2 | -0.3 | -0.5 |
| Gr58c | 1 | 0 | -0.2 |
| CG8475 | 1 | -0.4 | -0.7 |
| sd | 1 | 1.4 | 1.8 |
| GABA-B-R3 | 1 | -0.2 | -0.4 |
| CG12861 | 1 | -0.4 | -0.2 |
| CG15358 | 1 | 0 | -0.5 |
| Arp2 | 1 | 0.2 | -1 |
| parvin | 1 | 0.3 | 0 |
| Ero1L | 1 | -0.2 | -0.6 |
| Cht2 | 1 | -0.1 | 0 |
| CG10344 | 1 | -0.2 | 0.1 |
| Elk | 1 | -0.1 | 0.1 |
| CG42375 + CG9288 | 1 | -0.3 | -0.3 |
| Nepl5 | 1 | -0.3 | -0.5 |
| CG33695 + cana | 1 | -0.5 | -0.1 |
| CG33695 + cana | 2 | -0.3 | -0.4 |
| CG11815 | 1 | -0.4 | -0.4 |
| Efhc1.2 | 1 | -0.1 | 0 |
| Ercc1 | 1 | 0.1 | 1.8 |
| Jon99Fii + Jon99Cii + Jon99Ciii + 1 more | 1 | -0.5 | -0.5 |
| CG4199 | 1 | -0.2 | -0.1 |
| Ddrgk1 | 1 | -0.3 | -0.1 |
| corto | 1 | -0.3 | 0.1 |
| CG10669 | 1 | -0.1 | 0.4 |
| CG8379 | 1 | 0.3 | -0.1 |
| CG17768 + LSm-4 | 1 | 1.3 | 1.5 |
| lqfR | 1 | 0 | 0.2 |
| lqfR | 2 | 1.3 | 0.3 |
| rod | 1 | -0.3 | 0 |
| CG33110 | 1 | 3.5 | 1.1 |
| CG33110 | 2 | 0.1 | 1.5 |
| RpS10b | 1 | 0 | 5.1 |
| bon | 1 | -0.7 | -1.3 |
| Set | 1 | -0.3 | -0.3 |
| CG11951 | 1 | -0.4 | 0 |
| Mgat4b | 1 | -0.1 | 0 |
| Aprt | 1 | -0.3 | 1 |
| CR11386 + CR33222 | 1 | -0.2 | -0.3 |
| Irbp18 | 1 | 1.2 | 0.9 |
| CG18131 | 1 | 0.8 | 2.5 |
| INPP5E | 1 | -0.2 | -0.4 |
| CG12446 | 1 | -0.2 | -0.3 |
| CG13055 | 1 | -0.2 | 0.2 |
| CG12182 | 1 | -0.1 | 0.4 |
| TyrRS | 1 | -0.2 | -0.3 |
| CG5532 | 1 | 0.1 | -0.3 |
| twin | 1 | -0.2 | -0.4 |
| twin | 2 | -0.4 | -0.6 |
| CG32081 | 1 | -0.3 | -0.4 |
| tomboy20 | 1 | -0.2 | 0 |

Part of the list above, set out differently.
{"predicted target": "Elk", "reagent": 1, "z-score, replicate 1": -0.1, "z-score, replicate 2": 0.1}
{"predicted target": "CG42375 + CG9288", "reagent": 1, "z-score, replicate 1": -0.3, "z-score, replicate 2": -0.3}
{"predicted target": "Nepl5", "reagent": 1, "z-score, replicate 1": -0.3, "z-score, replicate 2": -0.5}
{"predicted target": "CG33695 + cana", "reagent": 1, "z-score, replicate 1": -0.5, "z-score, replicate 2": -0.1}
{"predicted target": "CG33695 + cana", "reagent": 2, "z-score, replicate 1": -0.3, "z-score, replicate 2": -0.4}
{"predicted target": "CG11815", "reagent": 1, "z-score, replicate 1": -0.4, "z-score, replicate 2": -0.4}
{"predicted target": "Efhc1.2", "reagent": 1, "z-score, replicate 1": -0.1, "z-score, replicate 2": 0}
{"predicted target": "Ercc1", "reagent": 1, "z-score, replicate 1": 0.1, "z-score, replicate 2": 1.8}

More reagents follow.
| predicted target | reagent | z-score, replicate 1 | z-score, replicate 2 |
| --- | --- | --- | --- |
| CG11127 | 1 | 0 | 0.4 |
| Crk | 1 | -0.2 | -0.1 |
| CG14191 | 1 | -0.2 | 0.3 |
| DUBAI | 1 | -0.3 | -0.5 |
| CG10232 | 1 | -0.1 | -0.1 |
| CG17930 | 1 | -0.1 | -0.6 |
| bisc | 1 | 0.1 | 0.2 |
| dpr6 | 1 | 0.9 | 3.9 |
| dpr6 | 2 | -0.2 | 0.6 |
| dpr6 | 3 | -0.6 | -0.5 |
| CG12402 | 1 | -0.3 | -0.6 |
| CG31437 | 1 | -0.2 | -0.8 |
| CG12594 | 1 | -0.4 | -0.7 |
| CG12746 | 1 | -0.4 | -0.7 |
| CG17048 | 1 | -0.2 | 0 |
| CG6707 | 1 | -0.1 | -0.3 |
| prtp | 1 | -0.5 | -0.5 |
| CG31371 | 1 | -0.4 | -0.4 |
| Slimp | 1 | 0.1 | -0.1 |
| smash | 1 | -0.2 | 0 |
| smash | 2 | -0.3 | 0 |
| bard | 1 | -0.7 | -0.1 |
| Acp32CD | 1 | 0 | 0.2 |
| Prtl99C | 1 | -0.2 | -0.2 |
| CG1801 | 1 | 0.1 | 0.5 |
| CG6144 | 1 | -0.7 | 0.2 |
| CG5550 | 1 | 0 | 0.1 |
| Act57B | 1 | 0.5 | 1.7 |
| CG4593 | 1 | -0.3 | -0.4 |
| CG42449 | 1 | -0.2 | -0.6 |
| CG6805 | 1 | -0.2 | -0.2 |
| spin | 1 | -0.2 | 0.2 |
| meigo | 1 | 0.2 | -0.1 |
| CG10283 | 1 | 0 | -0.1 |
| wkd | 1 | -0.3 | -0.5 |
| Cp7Fa | 1 | -0.2 | -0.2 |
| Cp7Fa | 2 | -0.3 | -0.5 |
| CG9812 | 1 | -0.3 | -0.4 |
| CG3491 | 1 | -0.3 | 1 |
| c-cup | 1 | -0.1 | 0.8 |
| CG5281 | 1 | -0.3 | -0.6 |
| CG3356 | 1 | -0.3 | -0.3 |
| mthl6 | 1 | -0.1 | -0.2 |
| Dhc16F | 1 | -0.2 | 0 |
| Idi | 1 | -0.2 | -0.2 |
